This note sets out measurements from publication doi:10.1101/2024.11.20.624454 (bioRxiv, 2024).

Results are given in words; binding and its absence hold for the method and conditions named. Sequences can lack the tags named with a protein.

In test [1] the target is T1, Mus musculus SPO11, MBP-tagged (Mus musculus, UniProt Q9WTK8 1-396).
T1 sequence (looked up): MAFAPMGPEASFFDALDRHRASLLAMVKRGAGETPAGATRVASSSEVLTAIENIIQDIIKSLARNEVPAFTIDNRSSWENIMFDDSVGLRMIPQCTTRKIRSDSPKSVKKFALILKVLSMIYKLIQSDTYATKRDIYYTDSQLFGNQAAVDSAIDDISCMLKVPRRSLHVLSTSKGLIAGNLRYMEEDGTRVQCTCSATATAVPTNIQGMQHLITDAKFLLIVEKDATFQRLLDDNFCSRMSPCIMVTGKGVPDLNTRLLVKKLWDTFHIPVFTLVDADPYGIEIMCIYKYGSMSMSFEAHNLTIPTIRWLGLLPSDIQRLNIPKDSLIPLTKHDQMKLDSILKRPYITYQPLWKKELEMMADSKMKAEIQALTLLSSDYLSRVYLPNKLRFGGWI
The experiment in a line: SEC-MALS.

Test [2] has as its target MBPSPO11-HisFlagTOP6BL complex (1:1) (Mus musculus) (UniProt Q9WTK8+J3QMY9). The experiment in a line: SEC-MALS.

B1: Mus musculus SPO11, MBP-tagged (enzyme, UniProt Q9WTK8 1-396)
chain: MAFAPMGPEASFFDALDRHRASLLAMVKRGAGETPAGATRVASSSEVLTAIENIIQDIIKSLARNEVPAFTIDNRSSWENIMFDDSVGLRMIPQCTTRKIRSDSPKSVKKFALILKVLSMIYKLIQSDTYATKRDIYYTDSQLFGNQAAVDSAIDDISCMLKVPRRSLHVLSTSKGLIAGNLRYMEEDGTRVQCTCSATATAVPTNIQGMQHLITDAKFLLIVEKDATFQRLLDDNFCSRMSPCIMVTGKGVPDLNTRLLVKKLWDTFHIPVFTLVDADPYGIEIMCIYKYGSMSMSFEAHNLTIPTIRWLGLLPSDIQRLNIPKDSLIPLTKHDQMKLDSILKRPYITYQPLWKKELEMMADSKMKAEIQALTLLSSDYLSRVYLPNKLRFGGWI
As for B1, the binding result in test [1] is “no binding (tested: 4 µM)”.

B2: MBPSPO11-HisFlagTOP6BL complex (1:1) (complex, UniProt Q9WTK8 1-396; J3QMY9 1-579)
chain 1: MAFAPMGPEASFFDALDRHRASLLAMVKRGAGETPAGATRVASSSEVLTAIENIIQDIIKSLARNEVPAFTIDNRSSWENIMFDDSVGLRMIPQCTTRKIRSDSPKSVKKFALILKVLSMIYKLIQSDTYATKRDIYYTDSQLFGNQAAVDSAIDDISCMLKVPRRSLHVLSTSKGLIAGNLRYMEEDGTRVQCTCSATATAVPTNIQGMQHLITDAKFLLIVEKDATFQRLLDDNFCSRMSPCIMVTGKGVPDLNTRLLVKKLWDTFHIPVFTLVDADPYGIEIMCIYKYGSMSMSFEAHNLTIPTIRWLGLLPSDIQRLNIPKDSLIPLTKHDQMKLDSILKRPYITYQPLWKKELEMMADSKMKAEIQALTLLSSDYLSRVYLPNKLRFGGWI
chain 2: MERTALAVCEILRYLIIHWKCEAGTAKGTLLDGQLVISIEALRSKHLPDSLHCIITIASTRSVYGGLNFKKFLQEIQPALPRLSAKLALASEEGGRSQDASGIAPCQVTFEVDENSQSLMTDCLVIKHFLRKIIIVHHKLKFSFSVAVNGTLSAETFGAENEPTLRLDNGVTLVVGFQRYVSKPKLNWSEAHCSRIHPVLGHPAPLFIPDAKADTGLLGELTLTPAAALCPSPKGFSSQLCRISSVSIFLYGPLGLPLLSSDQDQPSTAVFRDTSYFIDWKKYNLFMVPNLDLNLDTQSVLPDVNYKAESPEGNQSQNMNAQGPALLLFLFVDFQSDVPVQQAKIWGLHTLLTAHLSAILSESRSTVQQSIQSAVDQVWQLYHHDAKTQQRLQASLSVAVNSIMSVLTGSTRSSFRKTCLQALEAADTQEFGVKLHRIFYDITQHQFLKHCSCDTEQHLTPEKNISAQNTKDQHKNIAQEFPEESIGQAENKRPKRGSPNHGREESRVLGSARDRSPPKSATRDRELTEVSLTARGSQTQAAHGRAQAAEAASPAGGLEDLWLQEVSNLSEWLNPGHRS
Regarding B2, the binding result in test [2] was “no binding”.
